Data taken from the supplement of paper PMC10849652.
The other results are listed elsewhere or left out.

Chains of the proteins cited; added tags and fusions are not shown. Lines headed by an entry give the natural chain unless they say otherwise; changes in a name come on top.
UniProt Q15542, whole entry, looked up: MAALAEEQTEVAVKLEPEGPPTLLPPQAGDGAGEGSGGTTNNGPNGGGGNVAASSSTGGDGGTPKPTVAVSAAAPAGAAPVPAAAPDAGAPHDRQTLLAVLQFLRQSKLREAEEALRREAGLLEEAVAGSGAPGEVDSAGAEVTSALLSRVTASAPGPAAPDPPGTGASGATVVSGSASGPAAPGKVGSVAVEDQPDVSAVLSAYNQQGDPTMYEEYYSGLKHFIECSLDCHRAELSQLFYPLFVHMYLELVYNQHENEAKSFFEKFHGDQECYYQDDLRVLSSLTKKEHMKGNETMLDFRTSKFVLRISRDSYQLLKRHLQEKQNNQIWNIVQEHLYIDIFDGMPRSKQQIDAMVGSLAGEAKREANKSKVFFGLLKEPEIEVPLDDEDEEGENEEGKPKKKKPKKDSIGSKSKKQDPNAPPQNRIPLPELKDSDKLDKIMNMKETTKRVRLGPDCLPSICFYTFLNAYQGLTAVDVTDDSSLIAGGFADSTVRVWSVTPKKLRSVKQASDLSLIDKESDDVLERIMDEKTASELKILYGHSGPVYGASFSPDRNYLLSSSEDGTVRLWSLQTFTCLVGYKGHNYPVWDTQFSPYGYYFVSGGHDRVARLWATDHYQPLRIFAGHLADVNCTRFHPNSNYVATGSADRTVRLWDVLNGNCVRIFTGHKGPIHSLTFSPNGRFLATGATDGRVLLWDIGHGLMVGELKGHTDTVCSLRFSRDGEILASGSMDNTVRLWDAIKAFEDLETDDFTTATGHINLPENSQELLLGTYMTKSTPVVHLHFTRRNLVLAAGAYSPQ
UniProt Q9Y2K9: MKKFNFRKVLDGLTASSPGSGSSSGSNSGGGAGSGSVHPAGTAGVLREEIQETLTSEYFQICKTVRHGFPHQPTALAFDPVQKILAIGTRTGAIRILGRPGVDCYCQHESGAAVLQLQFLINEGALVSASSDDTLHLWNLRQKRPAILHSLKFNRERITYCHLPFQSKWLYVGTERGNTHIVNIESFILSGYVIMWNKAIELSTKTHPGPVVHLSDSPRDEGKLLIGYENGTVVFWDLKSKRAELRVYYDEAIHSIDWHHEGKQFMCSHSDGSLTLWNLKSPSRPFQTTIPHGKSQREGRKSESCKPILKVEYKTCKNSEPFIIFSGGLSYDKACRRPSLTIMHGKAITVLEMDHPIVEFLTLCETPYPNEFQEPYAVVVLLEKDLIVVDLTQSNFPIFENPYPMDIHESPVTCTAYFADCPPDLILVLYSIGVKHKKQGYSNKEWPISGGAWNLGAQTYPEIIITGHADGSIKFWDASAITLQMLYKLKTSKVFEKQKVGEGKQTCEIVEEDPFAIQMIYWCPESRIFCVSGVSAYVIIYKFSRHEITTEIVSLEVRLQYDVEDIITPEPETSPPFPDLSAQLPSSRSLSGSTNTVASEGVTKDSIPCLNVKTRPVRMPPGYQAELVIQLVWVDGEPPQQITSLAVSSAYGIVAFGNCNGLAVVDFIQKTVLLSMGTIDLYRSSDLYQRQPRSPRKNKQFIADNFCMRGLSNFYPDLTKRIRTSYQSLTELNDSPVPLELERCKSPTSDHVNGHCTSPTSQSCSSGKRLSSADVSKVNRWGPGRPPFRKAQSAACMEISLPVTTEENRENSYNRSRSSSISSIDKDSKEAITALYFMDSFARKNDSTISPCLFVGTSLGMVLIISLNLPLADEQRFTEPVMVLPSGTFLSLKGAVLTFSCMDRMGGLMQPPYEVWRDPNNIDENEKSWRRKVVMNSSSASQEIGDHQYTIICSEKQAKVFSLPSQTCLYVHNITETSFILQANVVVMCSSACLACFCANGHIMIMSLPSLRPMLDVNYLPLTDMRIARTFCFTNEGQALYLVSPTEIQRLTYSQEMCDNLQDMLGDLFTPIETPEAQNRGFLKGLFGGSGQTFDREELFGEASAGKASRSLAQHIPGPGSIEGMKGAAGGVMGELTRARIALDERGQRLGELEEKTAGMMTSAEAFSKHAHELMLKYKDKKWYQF
UniProt P08247, whole entry, looked up: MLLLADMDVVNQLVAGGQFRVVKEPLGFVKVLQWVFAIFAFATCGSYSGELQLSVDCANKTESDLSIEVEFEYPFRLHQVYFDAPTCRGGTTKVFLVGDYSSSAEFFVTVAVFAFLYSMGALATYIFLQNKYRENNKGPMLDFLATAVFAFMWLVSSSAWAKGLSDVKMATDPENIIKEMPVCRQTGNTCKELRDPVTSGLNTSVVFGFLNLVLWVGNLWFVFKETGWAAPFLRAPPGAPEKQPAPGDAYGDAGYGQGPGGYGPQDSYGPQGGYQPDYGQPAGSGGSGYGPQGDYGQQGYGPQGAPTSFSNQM
UniProt Q9UBS9: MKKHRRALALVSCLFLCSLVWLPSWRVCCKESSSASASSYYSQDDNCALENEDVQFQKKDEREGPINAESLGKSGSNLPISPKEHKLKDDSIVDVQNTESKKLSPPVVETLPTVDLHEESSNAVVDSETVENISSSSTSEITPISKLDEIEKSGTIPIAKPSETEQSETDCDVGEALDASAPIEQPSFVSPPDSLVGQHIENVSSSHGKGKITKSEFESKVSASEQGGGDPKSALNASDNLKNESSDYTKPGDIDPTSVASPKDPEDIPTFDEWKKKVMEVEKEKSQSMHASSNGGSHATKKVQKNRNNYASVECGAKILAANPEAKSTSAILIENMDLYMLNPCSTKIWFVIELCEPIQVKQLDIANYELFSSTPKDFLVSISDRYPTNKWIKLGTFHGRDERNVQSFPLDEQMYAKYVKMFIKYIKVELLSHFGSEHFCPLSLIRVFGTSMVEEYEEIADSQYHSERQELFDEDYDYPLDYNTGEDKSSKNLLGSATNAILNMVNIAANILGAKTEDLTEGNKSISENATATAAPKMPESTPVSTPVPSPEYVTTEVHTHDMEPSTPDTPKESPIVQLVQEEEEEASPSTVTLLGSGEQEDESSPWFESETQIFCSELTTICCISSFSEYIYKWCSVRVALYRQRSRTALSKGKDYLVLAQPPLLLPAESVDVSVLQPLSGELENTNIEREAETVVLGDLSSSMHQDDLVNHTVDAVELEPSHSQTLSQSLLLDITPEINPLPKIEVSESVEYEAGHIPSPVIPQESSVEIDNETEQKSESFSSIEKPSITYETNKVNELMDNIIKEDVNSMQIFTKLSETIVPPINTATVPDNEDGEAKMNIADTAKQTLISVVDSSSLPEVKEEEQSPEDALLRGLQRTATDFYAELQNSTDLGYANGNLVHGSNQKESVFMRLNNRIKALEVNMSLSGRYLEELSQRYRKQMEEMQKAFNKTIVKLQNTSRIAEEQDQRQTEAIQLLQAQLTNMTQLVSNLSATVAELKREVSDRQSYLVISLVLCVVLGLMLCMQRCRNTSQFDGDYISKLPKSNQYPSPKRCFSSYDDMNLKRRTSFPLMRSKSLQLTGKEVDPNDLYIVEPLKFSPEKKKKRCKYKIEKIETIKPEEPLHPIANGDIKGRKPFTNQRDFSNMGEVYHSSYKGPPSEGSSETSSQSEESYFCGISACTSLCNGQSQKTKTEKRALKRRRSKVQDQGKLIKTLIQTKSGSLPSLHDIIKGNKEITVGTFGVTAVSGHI

Assays:
Assay in all cases: log2 fold change, soluble protein after heating vs DMSO (PISA); higher = thermal stabilisation; K562 cells, 10 uM, 30 min; active = over 0.2 and 3.5 SD of the protein, either way, in both replicates (recomputed)
[1] = compound: CC1=C2C(=CC=C1)N=C(N(C2=O)C3=CC=CC=C3C)CN4C=NC5=C(N=CN=C54)N
Summary of the method: (§1)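 Aliquots of K562 cells (2×10^6 cells/mL) treated with 10 μM compound for 30 min were heated for 3 min over 48°C-58°C. After pooling and extraction in PBS with 0.5% NP-40 at 4°C, soluble protein from a 21,000xg, 90 min spin was quantified by TMTpro 16plex LC-MS/MS with channel sums equalised. Thermal stability is expressed against control samples, from duplicates, as a log2 fold change.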

[2] = compound: C1=CC=C(C=C1)[C@H](COC2=CC3=C(C=C2)NC(=O)N3)NC(=O)C4=CC=CN(C4=O)CC5=CC(=C(C=C5)F)F
Summary of the method: as §1

[3] = compound: CC1=C(SC2=C1C(=N[C@H](C3=NN=C(N32)C)CC(=O)N)C4=CC=C(C=C4)Cl)C
Summary of the method: as §1

[4] = compound: Cc1sc2c(c1C)C(c1ccc(Cl)cc1)=N[C@@H](CC(=O)OC(C)(C)C)c1nnc(C)n1-2
Summary of the method: as §1

[5] = compound: c1ccc([C@@H]2C[C@H]2NC2CCNCC2)cc1
Summary of the method: as §1

Measured: log2 fold change

TAF5 (UniProt Q15542)
inactive: [1] -0.101

SYNE2 isoform 2 (UniProt Q8WXH0)
inactive: [2] 0.064 | [3] 0.055 | [1] 0.209 | [4] -0.004 | [5] 0.096

STXBP5L (UniProt Q9Y2K9)
inactive: [3] -0.01 | [5] -0.063

SYP (UniProt P08247)
inactive: [2] 0.029 | [3] 0.095 | [1] 0.102 | [4] -0.02 | [5] 0.011

SUCO (UniProt Q9UBS9)
inactive: [3] 0.017 | [1] 0.042 | [4] 0.034 | [5] 0.007
